Experiment [1] has as its target human PD-L1 expressed on cells (hPD-L1-positive L2987 cells, L2987 xenografts, human lung tumor tissue) (human) (UniProt Q9NZQ7). The experiment is described as follows: in vivo PET, FIG. 4A.
Experiment [2] shares this target. The experiment can be described thus: PET image of mice with bilateral L2987 / HT-29 xenografts, summed 0 to 2 h.
For experiment [3] the target is unchanged. The experiment is described as follows: PET time-activity curves of tumor regions of interest, 0 to 120 min after injection of 64Cu-A02.
Experiment [4] has the same target. The experiment is described as follows: in vivo PET, competition with 64Cu-A02.
For experiment [5] the target is unchanged. The experiment can be described thus: in vivo blocking of 64Cu-A02 uptake in L2987 xenografts by unlabeled A02, PET time-activity curves.
Experiment [6] has the same target. The experiment can be described thus: in vitro autoradiography, 0.025 to 25 nM cold A02 against 0.25 nM 18F-A02 on xenograft and human lung tumor sections. Background: Xenograft models place foreign cells or tissue in a host animal.
The target is the same in experiment [7]. The experiment is described as follows: displacement of 0.25 nM 18F-DBCO-A02 from tissue sections by 0.025, 0.25, 2.5 and 25 nM cold A02, autoradiography.
The target is the same in experiment [8]. The experiment is described as follows: in vivo blocking of 64Cu-A02-NODAGA uptake in L2987 xenografts by co-injected unlabeled A02 (3 mg/kg according to the text), PET.
Experiment [9] has the same target. The experiment is described as follows: radiotracer cell binding, FIG. 3.
The target is the same in experiment [10]. The experiment can be described thus: cell-associated radioactivity by gamma counter after incubating cells with the tracer on ice, 3 washes.
For experiment [11] the target is unchanged. The experiment is described as follows: competition on L2987 cells against 64Cu-NODAGA-E01; cold E01 at one concentration (450 nM according to the text), gamma counter.

By UniProt entry, the sequences of proteins in these tests, tags left out. Residues count along the entry.
UniProt Q9NZQ7, residues 19-290: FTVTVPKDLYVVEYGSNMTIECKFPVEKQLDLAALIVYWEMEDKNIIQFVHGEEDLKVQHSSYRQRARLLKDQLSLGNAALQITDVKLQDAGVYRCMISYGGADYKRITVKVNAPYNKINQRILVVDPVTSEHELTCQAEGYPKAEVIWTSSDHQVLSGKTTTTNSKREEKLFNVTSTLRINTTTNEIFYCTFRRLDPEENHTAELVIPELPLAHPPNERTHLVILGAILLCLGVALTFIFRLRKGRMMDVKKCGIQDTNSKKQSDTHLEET

Results are given in words; binding and its absence hold for the method and conditions named. Some entries that bind do so weakly or less than the wild type.

B1: 64Cu-A02-NODAGA (designed binder)
chain: GVSDVPRDLEVVAATPTSLLISWSYDGPIDRYYRITYGETGGNSPVQEFTVPPDQKTATISGLKPGVDYTITVYAVRLEEAHYNREFPISINYRTPC
modifications: C-terminal cysteine linked by maleimide to NODAGA chelating 64Cu
notes: A02 with C-terminal PC; also called NODAGA-64Cu-labeled A02 anti-PD-L1 Adnectin
On to B1, for which the binding entry in experiment [1], in [2] and in experiment [3] was “binds” in each case.

B2: cold (unlabeled) A02 Adnectin (designed binder)
chain: B1 chain
With B2, the binding entry in experiment [4], in experiment [5], in [6], in [7] and in [8] was “binds” in each case.

B3: 64Cu-E01-NODAGA (designed binder)
chain: GVSDVPRDLEVVAATPTSLLISWRAQLSPSFYYRITYGETGGNSPVQEFTVPNDVMTATISGLKPGVDYTITVYAVTTHGVYFYSPISINYRTPC
modifications: C-terminal cysteine linked by maleimide to NODAGA chelating 64Cu
notes: E01 with C-terminal PC (ADX_5417_E01 w/ N leader and modified C-terminus); also called 64Cu-E01 anti-PD-L1 Adnectin
Take B3: the binding entry in [9] and in [10] was “binds” in each case.

B4: cold (unlabeled) E01 Adnectin (designed binder)
chain: B3 chain
As for B4, the binding result in experiment [11] is reported as “binds”.

Source of the values: patent publication US20220347324A1 (Bristol-Myers Squibb, published 2022).
